Experimental data from PMC8286969.
These are yes or no findings as the source states them, for the method shown. Binding seen in cells or lysates may run through a third protein. Some binding calls cover weakened binding; strength is not graded here.

Sequences of proteins named here, by UniProt entry; tags and fusion partners are left off.
UniProt P45983: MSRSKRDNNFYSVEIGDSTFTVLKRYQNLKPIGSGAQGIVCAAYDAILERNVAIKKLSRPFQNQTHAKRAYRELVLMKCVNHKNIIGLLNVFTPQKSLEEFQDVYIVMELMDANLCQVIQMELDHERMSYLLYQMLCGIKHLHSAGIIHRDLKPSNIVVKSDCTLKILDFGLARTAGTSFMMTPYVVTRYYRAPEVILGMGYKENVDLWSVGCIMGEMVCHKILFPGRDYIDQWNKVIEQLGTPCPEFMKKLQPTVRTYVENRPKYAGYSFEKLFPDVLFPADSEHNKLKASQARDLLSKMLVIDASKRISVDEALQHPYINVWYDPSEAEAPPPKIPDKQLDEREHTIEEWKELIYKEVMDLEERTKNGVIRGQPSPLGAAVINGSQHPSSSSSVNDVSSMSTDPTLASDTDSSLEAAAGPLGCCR
UniProt P53779: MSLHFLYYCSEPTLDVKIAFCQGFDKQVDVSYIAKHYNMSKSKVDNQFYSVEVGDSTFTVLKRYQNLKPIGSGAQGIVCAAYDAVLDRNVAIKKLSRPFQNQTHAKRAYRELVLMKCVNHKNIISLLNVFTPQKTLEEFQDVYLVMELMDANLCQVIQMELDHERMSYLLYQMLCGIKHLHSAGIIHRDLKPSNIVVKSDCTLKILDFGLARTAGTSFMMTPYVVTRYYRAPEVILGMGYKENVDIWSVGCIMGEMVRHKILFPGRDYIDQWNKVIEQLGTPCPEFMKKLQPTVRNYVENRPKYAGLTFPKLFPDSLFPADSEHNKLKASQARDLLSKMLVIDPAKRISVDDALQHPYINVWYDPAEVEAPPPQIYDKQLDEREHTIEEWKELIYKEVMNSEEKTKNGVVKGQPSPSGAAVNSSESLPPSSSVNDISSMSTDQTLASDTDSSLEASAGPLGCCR
UniProt O14733: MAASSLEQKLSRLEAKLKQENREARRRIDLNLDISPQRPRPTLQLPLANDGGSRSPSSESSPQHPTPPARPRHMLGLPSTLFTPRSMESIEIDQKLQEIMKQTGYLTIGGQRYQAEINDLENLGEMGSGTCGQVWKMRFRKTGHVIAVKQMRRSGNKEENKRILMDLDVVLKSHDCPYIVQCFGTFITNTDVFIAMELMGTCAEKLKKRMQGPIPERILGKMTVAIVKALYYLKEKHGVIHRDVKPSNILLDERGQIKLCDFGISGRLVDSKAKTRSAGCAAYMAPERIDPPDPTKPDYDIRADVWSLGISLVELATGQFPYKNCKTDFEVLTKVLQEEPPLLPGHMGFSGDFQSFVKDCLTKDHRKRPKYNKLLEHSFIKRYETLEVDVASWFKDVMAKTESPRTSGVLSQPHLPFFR

Legend:
[1] = molecular target: T1, N-terminal segment (amino acid residues 1-411) of RHBDF1 (human) (UniProt Q96CC6); test: co-IP; MCF-7 cells co-transfected with JNK1, 2 or 3 and RHBDF1 fragments
T1 sequence: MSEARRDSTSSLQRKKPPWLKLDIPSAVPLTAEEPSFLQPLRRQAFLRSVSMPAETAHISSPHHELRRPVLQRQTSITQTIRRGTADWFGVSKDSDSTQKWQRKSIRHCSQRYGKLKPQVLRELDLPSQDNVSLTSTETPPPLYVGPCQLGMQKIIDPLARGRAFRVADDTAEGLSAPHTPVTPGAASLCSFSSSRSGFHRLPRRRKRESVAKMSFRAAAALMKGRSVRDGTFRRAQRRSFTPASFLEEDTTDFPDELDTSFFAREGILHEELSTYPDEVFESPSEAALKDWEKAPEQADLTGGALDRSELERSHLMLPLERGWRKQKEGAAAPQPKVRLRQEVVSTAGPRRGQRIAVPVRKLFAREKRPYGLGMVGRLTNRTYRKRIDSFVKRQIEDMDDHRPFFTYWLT

[2] = molecular target: T2, RHBDF1 (human rhomboid family-1) (UniProt Q96CC6); test: co-IP; co-immunoprecipitation of endogenous p-JNK and p-MKK7 with RHBDF1; cells and precipitated partner not told
T2 sequence: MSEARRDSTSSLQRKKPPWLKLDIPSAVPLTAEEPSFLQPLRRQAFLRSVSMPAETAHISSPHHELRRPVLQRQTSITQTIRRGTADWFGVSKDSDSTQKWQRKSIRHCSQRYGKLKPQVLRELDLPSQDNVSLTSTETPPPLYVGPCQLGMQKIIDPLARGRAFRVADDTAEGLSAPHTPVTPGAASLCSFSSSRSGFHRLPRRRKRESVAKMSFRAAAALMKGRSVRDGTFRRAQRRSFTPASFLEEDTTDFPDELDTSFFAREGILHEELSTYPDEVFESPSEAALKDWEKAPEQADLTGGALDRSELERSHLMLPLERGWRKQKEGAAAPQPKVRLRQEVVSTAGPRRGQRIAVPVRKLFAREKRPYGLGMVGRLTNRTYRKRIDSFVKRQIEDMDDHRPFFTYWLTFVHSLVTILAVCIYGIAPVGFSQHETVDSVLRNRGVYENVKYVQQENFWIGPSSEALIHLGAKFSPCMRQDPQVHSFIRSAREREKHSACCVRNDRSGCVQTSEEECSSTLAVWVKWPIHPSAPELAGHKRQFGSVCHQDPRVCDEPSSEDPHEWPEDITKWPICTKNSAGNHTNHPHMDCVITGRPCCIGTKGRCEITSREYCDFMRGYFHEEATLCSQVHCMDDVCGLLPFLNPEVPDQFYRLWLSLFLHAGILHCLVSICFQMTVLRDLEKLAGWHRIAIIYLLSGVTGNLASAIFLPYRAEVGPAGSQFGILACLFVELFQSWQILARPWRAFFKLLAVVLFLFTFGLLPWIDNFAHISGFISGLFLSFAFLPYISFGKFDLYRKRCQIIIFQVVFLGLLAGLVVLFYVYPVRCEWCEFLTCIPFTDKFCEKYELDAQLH

binding [1] | binding [2] | Substance
binds weakly | – | JNK1 (from UniProt P45983 1-427)
binds | – | JNK2 (from UniProt P45984 1-424)
binds | – | JNK3 (from UniProt P53779 1-464)
– | binds | endogenous p-MKK7 (from UniProt O14733 1-419)
